This is an account of results in paper doi:10.1101/2025.05.20.654906.

Chains of the proteins cited; added tags and fusions are not shown.
UniProt P22953: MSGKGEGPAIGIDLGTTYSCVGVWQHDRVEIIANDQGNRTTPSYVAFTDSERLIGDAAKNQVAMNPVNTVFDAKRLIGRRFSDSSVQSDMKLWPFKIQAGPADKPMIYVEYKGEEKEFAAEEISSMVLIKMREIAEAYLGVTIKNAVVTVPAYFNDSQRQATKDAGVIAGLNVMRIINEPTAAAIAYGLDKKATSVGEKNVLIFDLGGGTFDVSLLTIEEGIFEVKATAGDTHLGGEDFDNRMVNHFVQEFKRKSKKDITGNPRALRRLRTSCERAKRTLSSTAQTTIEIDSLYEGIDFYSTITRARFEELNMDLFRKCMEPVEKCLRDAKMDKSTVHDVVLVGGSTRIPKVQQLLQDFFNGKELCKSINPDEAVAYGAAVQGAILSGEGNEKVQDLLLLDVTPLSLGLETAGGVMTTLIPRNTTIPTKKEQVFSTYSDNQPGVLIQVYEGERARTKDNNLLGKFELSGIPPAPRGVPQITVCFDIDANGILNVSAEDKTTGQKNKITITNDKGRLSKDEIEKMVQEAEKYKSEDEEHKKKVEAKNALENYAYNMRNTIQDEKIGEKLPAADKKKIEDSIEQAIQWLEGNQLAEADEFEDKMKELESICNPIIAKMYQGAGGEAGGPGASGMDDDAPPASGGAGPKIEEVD

These are yes or no findings as the source states them, for the method shown. In cells and extracts the contact can be indirect. Binding can be weak; no strength is given.

For this assay, the target named is AtDjB3-GFP (Arabidopsis thaliana) (UniProt Q9SIL3). Kind of assay: co-IP.

Hsc70-1 (from UniProt P22953 1-651): the binding result is given as “binds”.
